According to publication PMC12207318:
No constants are given. Whether binding was seen depends on the method and setting. Binding seen in cells or lysates may run through a third protein. Some entries that bind do so weakly or less than the wild type.

Target: Telomerase Associated Protein 1 (human (endogenous in patient-derived GSCs)) (UniProt Q99973)
Assay: co-IP; co-IP and blot (Figure 4k: TEP1 with KEAP1; Figure 4l: KEAP1 with NRF2 in TEP1 knock-down versus control groups); co-IP not described in the methods

- binding: binds
Substance: Kelch Like ECH Associated Protein 1 (from UniProt Q14145 1-624)
